Patent US20190225985A1, “Enhancing Bacillus Thuringiensis CRY Insecticidal Activity With a Chaperone” (Universidad Nacional Autónoma de México, priority 2016, published 2019)

Test system: trypsin
Assay: Proteolysis experiments: protoxin treated with trypsin in the presence of Hsp90 or BSA, Western blot
Assay type: biochemical
Settings: 1 μg protoxin, 5 ng trypsin, in the presence of Hsp90 versus albumin

## Cry1Ab
  stability of 130 kDa protoxin to trypsin treatment: more stable to treatment with trypsin
